Data reported in US20060205028A1, “Active-site titration of glycosyl hydrolases” (Novozymes A/S, priority 2003, published 2006).
For at least one compound, name, drawing or mass did not settle the structure.

System: xylanase Shearzyme
Assay: Burst active site titration of xylanase
Format: biochemical
Description: The synthesized burst active site titrant 2,4-dinitrophenyl 2-deoxy-2-flouro-β-D-xylopyranoside was dissolved in Milli Q water. 100 μl dissolved titrant was mixed with 50 μl assay buffer (50 mM sodium acetate, 0.0225% Brij 35, pH 5.0) and 50 μl of a purified sample of the commercial xylanase Shearzyme (available from Novozymes) diluted in Milli Q water in the wells of a microtiter plate. Final concentrations of 2,4-dinitrophenyl 2-deoxy-2-flouro-β-D-xylopyranoside were 0.5 mM and 1 mM, whereas the xylanase was added to give final absorbances at 280 nm of 13.4, 6.7 and 3.3. After mixing, absorbance was read at 405 nm at room temperature every 7 min for 30 hours using a SpectraMax Plus (Molecular Devices) microtiter plate reader. After subtraction of absorbances read in wells with same concentration of titrant but without enzyme, the measurements were fitted to the equation: A405=B*(1−exp(−(t+LT)*ln(2)/T1/2))+S*(t+LT)
where A405 is the absorbance at 405 nm, B is the burst in absorbance at 405 nm, t is the time from first measurement of absorbance, LT is the lag time from mixing of the reagents to first measurement of absorbance, T1/2 is the half time for the exponential burst phase and S is the slope due to hydrolysis of the enzyme 2-deoxy-2-fluoro-β-D-xylopyranose complex.

In the case of `O=[N+]([O-])c1ccc(O[C@@H]2OC[C@@H](O)[C@H](O)[C@H]2F)c([N+](=O)[O-])c1` [2,4-dinitrophenyl 2-deoxy-2-flouro-β-D-xylopyranoside], the “T1/2 (half time for the exponential burst phase)” value (Xylanase A280 3.3, titrant 0.5 mM) is reported as 8.1 h, the “T1/2 (half time for the exponential burst phase)” value (Xylanase A280 3.3, titrant 1 mM) is reported as 4.2 h and the “T1/2 (half time for the exponential burst phase)” value (Xylanase A280 6.7, titrant 0.5 mM) is reported as 8.6 h. The “T1/2 (half time for the exponential burst phase)” value (Xylanase A280 6.7, titrant 1 mM) was 4.2 h, the “T1/2 (half time for the exponential burst phase)” value (Xylanase A280 13.4, titrant 0.5 mM) was 8.7 h and the “T1/2 (half time for the exponential burst phase)” value (Xylanase A280 13.4, titrant 1 mM) was 4.4 h.
